The test system of the assay is PC3. Briefly: Sulforhodamine B (SRB) growth inhibition assay. Format: cell-based, human. Conditions: PC3, ± SE. How it is done: Cells were inoculated into 96-well plates in growth medium. After 24 h, cells were fixed with 10% trichloroacetic acid (TCA), to represent a measurement of the cell population at the time of drug addition (Tz). After incubation with vehicle (0.1% DMSO) or different concentrations of compound for 48 h (Tt), cells were fixed with 10% TCA and stained with 0.4% SRB. After staining, unbound SRB was removed by 1% acetic acid. Bound SRB was solubilized with 10 mM trizma base and the absorbance was measured at 515 nm. Percentage of growth inhibition was calculated as: 100−[(Tt-Tz)/(C-Tz)] ×100. Tt represents absorbance of compound-treated group, and C means absorbance of vehicle-treated group.

What is called GI50 is the concentration that inhibits growth by half. A low value points to more potent growth inhibition. For the compound `O=C(CCCCCCC(=O)Nc1ccccc1)NO` [SAHA, suberanilohydroxamic acid, reference compound], halving of growth (GI50) required 230 ± 20 nM.

Source of the values: publication PMC4170623, “A novel class I HDAC inhibitor, MPT0G030, induces cell apoptosis and differentiation in human colorectal cancer cells via HDAC1/PKCδ and E-cadherin” (Oncotarget, 2014).
